According to patent US12714688B2, “Margaric acid decreases PIEZ02-mediated pain” (The United States of America, as represented by The …, priority 2020, dated 2026):
At least one structure is not confirmed: it was looked up by name or label, or the drawing left a doubt.

Protein sequences, listed by entry. Tags and fused reporters are not part of them. Lines headed by an entry give the natural chain unless they say otherwise; changes in a name come on top.
UniProt Q8CD54: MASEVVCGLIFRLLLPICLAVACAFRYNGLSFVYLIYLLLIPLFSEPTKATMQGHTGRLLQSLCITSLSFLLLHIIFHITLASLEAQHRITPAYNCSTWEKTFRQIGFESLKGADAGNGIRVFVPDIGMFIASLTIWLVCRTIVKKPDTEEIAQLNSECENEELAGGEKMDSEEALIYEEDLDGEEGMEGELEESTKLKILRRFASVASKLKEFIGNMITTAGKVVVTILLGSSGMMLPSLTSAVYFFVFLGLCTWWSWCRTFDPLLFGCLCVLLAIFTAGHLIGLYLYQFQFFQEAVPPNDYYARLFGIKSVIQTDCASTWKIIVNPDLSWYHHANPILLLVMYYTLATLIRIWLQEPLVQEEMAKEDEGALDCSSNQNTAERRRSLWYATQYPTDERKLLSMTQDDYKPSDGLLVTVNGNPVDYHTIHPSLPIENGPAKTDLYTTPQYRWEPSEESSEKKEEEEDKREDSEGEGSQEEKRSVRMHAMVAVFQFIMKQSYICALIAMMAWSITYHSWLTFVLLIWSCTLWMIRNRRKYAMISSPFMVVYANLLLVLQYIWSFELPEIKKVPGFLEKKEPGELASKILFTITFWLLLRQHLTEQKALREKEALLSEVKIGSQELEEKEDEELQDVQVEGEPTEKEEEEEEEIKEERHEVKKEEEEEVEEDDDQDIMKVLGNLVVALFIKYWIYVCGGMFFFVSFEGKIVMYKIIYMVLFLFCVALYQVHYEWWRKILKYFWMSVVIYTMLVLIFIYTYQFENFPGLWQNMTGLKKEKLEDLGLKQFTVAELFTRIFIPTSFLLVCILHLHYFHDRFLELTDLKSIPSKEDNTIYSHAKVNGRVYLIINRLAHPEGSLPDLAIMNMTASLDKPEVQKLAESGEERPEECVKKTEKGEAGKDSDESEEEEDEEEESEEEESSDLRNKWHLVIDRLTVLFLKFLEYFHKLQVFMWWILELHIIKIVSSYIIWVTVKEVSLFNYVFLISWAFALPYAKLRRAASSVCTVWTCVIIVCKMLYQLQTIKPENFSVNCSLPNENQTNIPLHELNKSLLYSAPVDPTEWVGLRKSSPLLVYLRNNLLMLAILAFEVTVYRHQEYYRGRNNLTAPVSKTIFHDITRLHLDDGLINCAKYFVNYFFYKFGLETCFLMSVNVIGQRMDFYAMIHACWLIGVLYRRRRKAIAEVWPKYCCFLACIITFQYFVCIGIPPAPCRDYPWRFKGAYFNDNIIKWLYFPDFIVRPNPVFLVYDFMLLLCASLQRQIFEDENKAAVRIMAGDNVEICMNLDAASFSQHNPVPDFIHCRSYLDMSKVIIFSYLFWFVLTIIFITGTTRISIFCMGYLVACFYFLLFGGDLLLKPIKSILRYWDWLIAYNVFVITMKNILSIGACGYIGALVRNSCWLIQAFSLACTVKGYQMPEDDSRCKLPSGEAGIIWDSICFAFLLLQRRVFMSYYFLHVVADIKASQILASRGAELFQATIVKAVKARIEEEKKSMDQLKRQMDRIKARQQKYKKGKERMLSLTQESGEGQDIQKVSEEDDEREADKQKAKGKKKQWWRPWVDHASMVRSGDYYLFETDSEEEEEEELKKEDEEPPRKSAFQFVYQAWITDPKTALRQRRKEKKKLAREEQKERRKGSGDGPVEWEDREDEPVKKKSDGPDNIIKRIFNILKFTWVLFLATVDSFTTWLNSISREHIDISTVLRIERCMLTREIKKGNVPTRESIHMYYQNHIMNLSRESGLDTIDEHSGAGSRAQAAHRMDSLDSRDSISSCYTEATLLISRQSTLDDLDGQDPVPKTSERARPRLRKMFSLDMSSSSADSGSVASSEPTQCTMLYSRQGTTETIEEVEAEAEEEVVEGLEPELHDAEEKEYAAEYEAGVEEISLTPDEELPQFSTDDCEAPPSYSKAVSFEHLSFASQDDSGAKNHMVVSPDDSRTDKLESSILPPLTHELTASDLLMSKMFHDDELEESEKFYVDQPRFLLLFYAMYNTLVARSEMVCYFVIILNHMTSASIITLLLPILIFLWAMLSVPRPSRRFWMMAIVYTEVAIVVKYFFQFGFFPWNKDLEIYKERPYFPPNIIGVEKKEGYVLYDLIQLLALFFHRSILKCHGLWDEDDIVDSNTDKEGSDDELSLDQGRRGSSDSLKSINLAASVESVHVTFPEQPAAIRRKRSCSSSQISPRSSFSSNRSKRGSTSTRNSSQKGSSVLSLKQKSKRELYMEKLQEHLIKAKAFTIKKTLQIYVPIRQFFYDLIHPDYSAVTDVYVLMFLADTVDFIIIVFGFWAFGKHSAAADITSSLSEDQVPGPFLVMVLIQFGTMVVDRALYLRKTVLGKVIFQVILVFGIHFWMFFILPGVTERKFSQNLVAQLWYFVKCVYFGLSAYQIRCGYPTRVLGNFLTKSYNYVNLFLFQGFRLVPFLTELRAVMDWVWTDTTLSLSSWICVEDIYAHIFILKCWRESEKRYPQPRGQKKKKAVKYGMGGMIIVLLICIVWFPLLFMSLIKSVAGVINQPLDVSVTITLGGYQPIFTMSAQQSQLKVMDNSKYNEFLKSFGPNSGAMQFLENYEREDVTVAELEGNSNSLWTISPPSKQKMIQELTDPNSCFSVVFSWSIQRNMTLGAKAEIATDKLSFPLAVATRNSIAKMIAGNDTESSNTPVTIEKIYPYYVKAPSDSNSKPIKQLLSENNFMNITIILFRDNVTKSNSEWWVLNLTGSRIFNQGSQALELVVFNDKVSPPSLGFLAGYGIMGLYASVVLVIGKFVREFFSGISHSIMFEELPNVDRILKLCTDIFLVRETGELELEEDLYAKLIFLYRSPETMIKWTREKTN

Key:
[1] = tested on: mechano-activated currents of rat DRG neurons; experiment: Whole-cell patch-clamp of mechano-activated currents in rat DRG neurons; conditions: EPA 200 μM for 18 h
[2] = tested on: PIEZO2 arthrogryposis mutants S2691R and E2727del; experiment: Whole-cell patch-clamp of N2A cells transfected with PIEZO2 arthrogryposis mutants; conditions: EPA supplementation
mouse PIEZO2 = mouse PIEZO2 (Mus musculus, UniProt Q8CD54); experiment: Whole-cell patch-clamp with mechanical indentation of N2A^Piezo1−/− cells transfected with Piezo2 variant 2 (V2); conditions: EPA 200 μM; 18 h; V2, V16 and V14

Q: Which “time constants of inactivation of PIEZO2” value [1] does the source give for `CC/C=C\C/C=C\C/C=C\C/C=C\C/C=C\CCCC(=O)O` [EPA, eicosapentaenoic acid] here?
A: decreases the time constants of inactivation of PIEZO2

Q: And the “phenotype of PIEZO2 arthrogryposis mutations (time constants of inactivation)” value [2]?
A: abrogates the phenotype of PIEZO2 arthrogryposis mutations

Q: And the “time constants of inactivation of PIEZO2 currents” value (mouse PIEZO2)?
A: decreases the time constants of inactivation
